Laboratory results reported in publication PMC8783937.
Results are given in words; binding and its absence hold for the method and conditions named. In cells and extracts the contact can be indirect. Some binding calls cover weakened binding; strength is not graded here.

The chains behind the UniProt entries cited, without tags or fusion partners.
UniProt Q05127: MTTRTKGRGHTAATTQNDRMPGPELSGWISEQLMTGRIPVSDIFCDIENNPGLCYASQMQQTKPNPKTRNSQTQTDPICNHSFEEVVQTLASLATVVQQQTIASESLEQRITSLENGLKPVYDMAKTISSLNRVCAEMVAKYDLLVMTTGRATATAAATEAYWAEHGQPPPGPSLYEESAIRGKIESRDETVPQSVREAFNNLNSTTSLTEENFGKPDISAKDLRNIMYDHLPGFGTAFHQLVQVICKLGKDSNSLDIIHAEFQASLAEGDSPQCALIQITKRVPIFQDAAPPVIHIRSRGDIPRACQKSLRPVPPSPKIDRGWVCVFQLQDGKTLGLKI
UniProt Q05128: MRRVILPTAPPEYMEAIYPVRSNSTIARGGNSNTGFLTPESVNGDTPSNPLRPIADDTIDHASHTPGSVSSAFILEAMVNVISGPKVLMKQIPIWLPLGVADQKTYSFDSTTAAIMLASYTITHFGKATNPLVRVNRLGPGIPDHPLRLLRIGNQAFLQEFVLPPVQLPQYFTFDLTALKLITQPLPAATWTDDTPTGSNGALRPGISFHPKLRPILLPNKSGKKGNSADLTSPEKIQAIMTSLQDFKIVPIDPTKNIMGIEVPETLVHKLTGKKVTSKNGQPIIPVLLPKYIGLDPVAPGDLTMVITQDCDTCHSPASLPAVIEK

Molecular target: Flag-VP35 (Zaire ebolavirus) (UniProt Q05127)
Test: co-IP

Myc-VP40 (from UniProt Q05128 1-326)
binding: binds
